Data taken from patent US7947715B2, “Isoxazoline compound and pesticide” (Nissan Chemical Industries, Ltd., priority 2006, dated 2011).
Some of these results come from one statement about several compounds together. For at least one compound, name, drawing or mass did not settle the structure.

Tested on: cabbage moth (Plutella xylostella)
Test: Insecticidal test against cabbage moth (leaf dip)
Format: in vivo
Conditions: second instar larva, after 6 days

CC(C)C(=O)NCc1ccc(C2=NOC(c3cc(Cl)c(Cl)c(Cl)c3)(C(F)(F)F)C2)cc1Cl (centres unmarked) [2-115]
insecticidal rate (rate of dead insects) (10 ppm (**)): ≥ 80%

CC(C)C(=O)NCc1ccc(C2=NOC(c3cc(Cl)c(Cl)c(Cl)c3)(C(F)(F)F)C2)cc1Br (centres unmarked) [2-116]
insecticidal rate (rate of dead insects) (10 ppm (**)): ≥ 80%

CC(C)C(=O)NCc1ccc(C2=NOC(c3cc(Cl)cc(Cl)c3)(C(F)(F)F)C2)cc1[N+](=O)[O-] (centres unmarked) [2-117]
insecticidal rate (rate of dead insects) (10 ppm (**)): ≥ 80%

CC(C)C(=O)NCc1ccc(C2=NOC(c3cc(Cl)c(Cl)c(Cl)c3)(C(F)(F)F)C2)cc1[N+](=O)[O-] (centres unmarked) [2-118]
insecticidal rate (rate of dead insects) (10 ppm (**)): ≥ 80%

CC(C)C(=O)NC(C)c1ccc(C2=NOC(c3cc(Cl)c(Cl)c(Cl)c3)(C(F)(F)F)C2)cc1 (centres unmarked) [2-119]
insecticidal rate (rate of dead insects) (10 ppm (**)): ≥ 80%

O=C(NCc1ccc(C2=NOC(c3cc(Cl)c(Cl)c(Cl)c3)(C(F)(F)F)C2)cc1)C1CC1 (centres unmarked) [2-120]
insecticidal rate (rate of dead insects) (10 ppm (**)): ≥ 80%

Cc1cc(C2(C(F)(F)F)CC(c3ccc(CNC(=O)C4CC4)c(Cl)c3)=NO2)cc(Cl)c1Cl (centres unmarked) [2-122]
insecticidal rate (rate of dead insects) (10 ppm (**)): ≥ 80%

O=C(NCc1ccc(C2=NOC(c3cc(Cl)c(OC(F)F)c(Cl)c3)(C(F)(F)F)C2)cc1Cl)C1CC1 (centres unmarked) [2-124]
insecticidal rate (rate of dead insects) (10 ppm (**)): ≥ 80%

O=C(NCc1ccc(C2=NOC(c3cc(Cl)c(Cl)c(Cl)c3)(C(F)(F)F)C2)cc1Br)C1CC1 (centres unmarked) [2-129]
insecticidal rate (rate of dead insects) (10 ppm (**)): ≥ 80%

O=C(NCc1ccc(C2=NOC(c3cc(Cl)c(Cl)c(Cl)c3)(C(F)(F)F)C2)cc1[N+](=O)[O-])C1CC1 (centres unmarked) [2-130]
insecticidal rate (rate of dead insects) (10 ppm (**)): ≥ 80%

N#Cc1cc(C2=NOC(c3cc(Cl)cc(Cl)c3)(C(F)(F)F)C2)ccc1CNC(=O)C1CC1 (centres unmarked) [2-131]
insecticidal rate (rate of dead insects) (10 ppm (**)): ≥ 80%

NC(=S)c1cc(C2=NOC(c3cc(Cl)cc(Cl)c3)(C(F)(F)F)C2)ccc1CNC(=O)C1CC1 (centres unmarked) [2-132]
insecticidal rate (rate of dead insects) (10 ppm (**)): ≥ 80%

O=C(NCc1ccc(C2=NOC(c3cc(Cl)cc(Cl)c3)(C(F)(F)F)C2)c2ccccc12)C1CC1 (centres unmarked) [2-133]
insecticidal rate (rate of dead insects) (100 ppm (*)): ≥ 80%

CC(NC(=O)C1CC1)c1ccc(C2=NOC(c3cc(C(F)(F)F)cc(C(F)(F)F)c3)(C(F)(F)F)C2)cc1 (centres unmarked) [2-134]
insecticidal rate (rate of dead insects) (10 ppm (**)): ≥ 80%

CC(NC(=O)C1CC1)c1ccc(C2=NOC(c3cc(Cl)c(Cl)c(Cl)c3)(C(F)(F)F)C2)cc1 (centres unmarked) [2-135]
insecticidal rate (rate of dead insects) (10 ppm (**)): ≥ 80%

Cc1cc(C2=NOC(c3cc(Cl)cc(Cl)c3)(C(F)(F)F)C2)ccc1C(C)NC(=O)C1CC1 (centres unmarked) [2-136]
insecticidal rate (rate of dead insects) (100 ppm (*)): ≥ 80%

O=C(NC(c1ccc(C2=NOC(c3cc(Cl)cc(Cl)c3)(C(F)(F)F)C2)cc1)C1CC1)C1CC1 (centres unmarked) [2-137]
insecticidal rate (rate of dead insects) (500 ppm): ≥ 80%

N#CC(NC(=O)C1CC1)c1ccc(C2=NOC(c3cc(Cl)c(Cl)c(Cl)c3)(C(F)(F)F)C2)cc1 (centres unmarked) [2-138]
insecticidal rate (rate of dead insects) (10 ppm (**)): ≥ 80%

NC(=S)C(NC(=O)C1CC1)c1ccc(C2=NOC(c3cc(Cl)c(Cl)c(Cl)c3)(C(F)(F)F)C2)cc1 (centres unmarked) [2-139]
insecticidal rate (rate of dead insects) (10 ppm (**)): ≥ 80%

CC(C)CC(=O)NCc1ccc(C2=NOC(c3cc(C(F)(F)F)cc(C(F)(F)F)c3)(C(F)(F)F)C2)cc1Cl (centres unmarked) [2-140]
insecticidal rate (rate of dead insects) (10 ppm (**)): ≥ 80%

CC(C)CC(=O)NCc1ccc(C2=NOC(c3cc(Cl)c(Cl)c(Cl)c3)(C(F)(F)F)C2)cc1Cl (centres unmarked) [2-141]
insecticidal rate (rate of dead insects) (10 ppm (**)): ≥ 80%

CC(C)CC(=O)NCc1ccc(C2=NOC(c3cc(Cl)c(Cl)c(Cl)c3)(C(F)(F)F)C2)cc1Br (centres unmarked) [2-142]
insecticidal rate (rate of dead insects) (10 ppm (**)): ≥ 80%

CC(C)CC(=O)NC(C)c1ccc(C2=NOC(c3cc(Cl)c(Cl)c(Cl)c3)(C(F)(F)F)C2)cc1 (centres unmarked) [2-143]
insecticidal rate (rate of dead insects) (10 ppm (**)): ≥ 80%

O=C(CC1CC1)NCc1ccc(C2=NOC(c3cc(C(F)(F)F)cc(C(F)(F)F)c3)(C(F)(F)F)C2)cc1Cl (centres unmarked) [2-144]
insecticidal rate (rate of dead insects) (10 ppm (**)): ≥ 80%

O=C(CC1CC1)NCc1ccc(C2=NOC(c3cc(Cl)c(Cl)c(Cl)c3)(C(F)(F)F)C2)cc1Cl (centres unmarked) [2-145]
insecticidal rate (rate of dead insects) (10 ppm (**)): ≥ 80%

O=C(CC1CC1)NCc1ccc(C2=NOC(c3cc(Cl)c(Cl)c(Cl)c3)(C(F)(F)F)C2)cc1Br (centres unmarked) [2-146]
insecticidal rate (rate of dead insects) (10 ppm (**)): ≥ 80%

O=C(CC1CC1)NCc1ccc(C2=NOC(c3cc(Cl)c(Cl)c(Cl)c3)(C(F)(F)F)C2)cc1[N+](=O)[O-] (centres unmarked) [2-147]
insecticidal rate (rate of dead insects) (10 ppm (**)): ≥ 80%

CC(NC(=O)CC1CC1)c1ccc(C2=NOC(c3cc(C(F)(F)F)cc(C(F)(F)F)c3)(C(F)(F)F)C2)cc1 (centres unmarked) [2-148]
insecticidal rate (rate of dead insects) (10 ppm (**)): ≥ 80%

CC(NC(=O)CC1CC1)c1ccc(C2=NOC(c3cc(Cl)c(Cl)c(Cl)c3)(C(F)(F)F)C2)cc1 (centres unmarked) [2-149]
insecticidal rate (rate of dead insects) (10 ppm (**)): ≥ 80%

N#CC(NC(=O)CC1CC1)c1ccc(C2=NOC(c3cc(Cl)c(Cl)c(Cl)c3)(C(F)(F)F)C2)cc1 (centres unmarked) [2-150]
insecticidal rate (rate of dead insects) (10 ppm (**)): ≥ 80%

CC1CC1C(=O)NCc1ccc(C2=NOC(c3cc(C(F)(F)F)cc(C(F)(F)F)c3)(C(F)(F)F)C2)cc1Cl (centres unmarked) [2-151]
insecticidal rate (rate of dead insects) (10 ppm (**)): ≥ 80%

CC1CC1C(=O)NCc1ccc(C2=NOC(c3cc(Cl)c(Cl)c(Cl)c3)(C(F)(F)F)C2)cc1Cl (centres unmarked) [2-152]
insecticidal rate (rate of dead insects) (10 ppm (**)): ≥ 80%

CC(NC(=O)C1CC1C)c1ccc(C2=NOC(c3cc(Cl)c(Cl)c(Cl)c3)(C(F)(F)F)C2)cc1 (centres unmarked) [2-153]
insecticidal rate (rate of dead insects) (10 ppm (**)): ≥ 80%

O=C(NCc1ccc(C2=NOC(c3cc(Cl)c(Cl)c(Cl)c3)(C(F)(F)F)C2)cc1Cl)C1CCC1 (centres unmarked) [2-154]
insecticidal rate (rate of dead insects) (10 ppm (**)): ≥ 80%

O=C(NCc1ccc(C2=NOC(c3cc(Cl)c(Cl)c(Cl)c3)(C(F)(F)F)C2)cc1Br)C1CCC1 (centres unmarked) [2-155]
insecticidal rate (rate of dead insects) (10 ppm (**)): ≥ 80%

CCCSCC(=O)NCc1ccc(C2=NOC(c3cc(Cl)cc(Cl)c3)(C(F)(F)F)C2)cc1Cl (centres unmarked) [2-187]
insecticidal rate (rate of dead insects) (100 ppm (*)): ≥ 80%

CC(C)SCC(=O)NCc1ccc(C2=NOC(c3cc(Cl)cc(Cl)c3)(C(F)(F)F)C2)cc1Cl (centres unmarked) [2-188]
insecticidal rate (rate of dead insects) (100 ppm (*)): ≥ 80%

CSC(C)C(=O)NCc1ccc(C2=NOC(c3cc(Cl)cc(Cl)c3)(C(F)(F)F)C2)cc1Cl (centres unmarked) [2-193]
insecticidal rate (rate of dead insects) (10 ppm (**)): ≥ 80%

CC(C(=O)NCc1ccc(C2=NOC(c3cc(Cl)cc(Cl)c3)(C(F)(F)F)C2)cc1Cl)[S+](C)[O-] (centres unmarked) [2-194]
insecticidal rate (rate of dead insects) (10 ppm (**)): ≥ 80%

CC(C(=O)NCc1ccc(C2=NOC(c3cc(Cl)cc(Cl)c3)(C(F)(F)F)C2)cc1Cl)S(C)(=O)=O (centres unmarked) [2-195]
insecticidal rate (rate of dead insects) (10 ppm (**)): ≥ 80%

CSC(C)(C)C(=O)NCc1ccc(C2=NOC(c3cc(Cl)cc(Cl)c3)(C(F)(F)F)C2)cc1Cl (centres unmarked) [2-196]
insecticidal rate (rate of dead insects) (500 ppm): ≥ 80%

CC(C)(C(=O)NCc1ccc(C2=NOC(c3cc(Cl)cc(Cl)c3)(C(F)(F)F)C2)cc1Cl)S(C)(=O)=O (centres unmarked) [2-197]
insecticidal rate (rate of dead insects) (500 ppm): ≥ 80%

CSCCC(=O)NCc1ccc(C2=NOC(c3cc(Cl)c(Cl)c(Cl)c3)(C(F)(F)F)C2)cc1Cl (centres unmarked) [2-198]
insecticidal rate (rate of dead insects) (10 ppm (**)): ≥ 80%

CSCCC(=O)NC(C#N)c1ccc(C2=NOC(c3cc(Cl)c(Cl)c(Cl)c3)(C(F)(F)F)C2)cc1 (centres unmarked) [2-199]
insecticidal rate (rate of dead insects) (500 ppm): ≥ 80%

CN(C)CC(=O)NCc1ccc(C2=NOC(c3cc(Cl)c(Cl)c(Cl)c3)(C(F)(F)F)C2)cc1Cl (centres unmarked) [2-200]
insecticidal rate (rate of dead insects) (10 ppm (**)): ≥ 80%

CCN(C)CC(=O)NCc1ccc(C2=NOC(c3cc(Cl)c(Cl)c(Cl)c3)(C(F)(F)F)C2)cc1Cl (centres unmarked) [2-201]
insecticidal rate (rate of dead insects) (10 ppm (**)): ≥ 80%

CCN(CC)CC(=O)NCc1ccc(C2=NOC(c3cc(Cl)c(Cl)c(Cl)c3)(C(F)(F)F)C2)cc1Cl (centres unmarked) [2-202]
insecticidal rate (rate of dead insects) (10 ppm (**)): ≥ 80%
